Results from publication doi:10.1101/2021.10.07.21264568.
Results are given in words; binding and its absence hold for the method and conditions named. In cells and extracts the contact can be indirect. Some entries that bind do so weakly or less than the wild type.

Biological target: T1, HCN1 (human (endogenous in induced neurons)) (UniProt O60741)
T1 sequence: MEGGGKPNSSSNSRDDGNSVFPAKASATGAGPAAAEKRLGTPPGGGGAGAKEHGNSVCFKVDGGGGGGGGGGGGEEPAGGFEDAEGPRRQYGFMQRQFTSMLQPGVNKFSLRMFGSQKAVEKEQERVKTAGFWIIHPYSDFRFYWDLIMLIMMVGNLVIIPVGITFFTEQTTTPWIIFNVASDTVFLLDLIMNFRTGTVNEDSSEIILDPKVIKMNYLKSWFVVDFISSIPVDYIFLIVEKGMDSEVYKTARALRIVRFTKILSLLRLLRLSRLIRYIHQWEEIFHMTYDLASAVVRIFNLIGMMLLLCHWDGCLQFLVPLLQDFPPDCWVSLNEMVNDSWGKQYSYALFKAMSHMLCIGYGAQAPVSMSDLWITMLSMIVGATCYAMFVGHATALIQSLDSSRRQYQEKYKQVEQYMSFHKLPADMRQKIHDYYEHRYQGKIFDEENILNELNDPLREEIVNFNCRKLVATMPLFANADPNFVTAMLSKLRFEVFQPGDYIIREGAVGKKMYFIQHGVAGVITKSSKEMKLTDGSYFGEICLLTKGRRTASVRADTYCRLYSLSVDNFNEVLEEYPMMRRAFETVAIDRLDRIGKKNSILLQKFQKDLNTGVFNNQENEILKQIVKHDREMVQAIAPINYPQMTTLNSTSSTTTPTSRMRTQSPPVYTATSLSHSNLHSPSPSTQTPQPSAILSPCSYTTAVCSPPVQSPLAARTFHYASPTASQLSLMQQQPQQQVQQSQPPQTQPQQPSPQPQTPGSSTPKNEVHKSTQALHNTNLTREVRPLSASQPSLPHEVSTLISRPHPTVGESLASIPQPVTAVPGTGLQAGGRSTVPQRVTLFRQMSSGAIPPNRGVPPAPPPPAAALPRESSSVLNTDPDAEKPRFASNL
Test: co-IP

B1: SYNGAP1 (protein, UniProt Q96PV0 1-1343)
chain: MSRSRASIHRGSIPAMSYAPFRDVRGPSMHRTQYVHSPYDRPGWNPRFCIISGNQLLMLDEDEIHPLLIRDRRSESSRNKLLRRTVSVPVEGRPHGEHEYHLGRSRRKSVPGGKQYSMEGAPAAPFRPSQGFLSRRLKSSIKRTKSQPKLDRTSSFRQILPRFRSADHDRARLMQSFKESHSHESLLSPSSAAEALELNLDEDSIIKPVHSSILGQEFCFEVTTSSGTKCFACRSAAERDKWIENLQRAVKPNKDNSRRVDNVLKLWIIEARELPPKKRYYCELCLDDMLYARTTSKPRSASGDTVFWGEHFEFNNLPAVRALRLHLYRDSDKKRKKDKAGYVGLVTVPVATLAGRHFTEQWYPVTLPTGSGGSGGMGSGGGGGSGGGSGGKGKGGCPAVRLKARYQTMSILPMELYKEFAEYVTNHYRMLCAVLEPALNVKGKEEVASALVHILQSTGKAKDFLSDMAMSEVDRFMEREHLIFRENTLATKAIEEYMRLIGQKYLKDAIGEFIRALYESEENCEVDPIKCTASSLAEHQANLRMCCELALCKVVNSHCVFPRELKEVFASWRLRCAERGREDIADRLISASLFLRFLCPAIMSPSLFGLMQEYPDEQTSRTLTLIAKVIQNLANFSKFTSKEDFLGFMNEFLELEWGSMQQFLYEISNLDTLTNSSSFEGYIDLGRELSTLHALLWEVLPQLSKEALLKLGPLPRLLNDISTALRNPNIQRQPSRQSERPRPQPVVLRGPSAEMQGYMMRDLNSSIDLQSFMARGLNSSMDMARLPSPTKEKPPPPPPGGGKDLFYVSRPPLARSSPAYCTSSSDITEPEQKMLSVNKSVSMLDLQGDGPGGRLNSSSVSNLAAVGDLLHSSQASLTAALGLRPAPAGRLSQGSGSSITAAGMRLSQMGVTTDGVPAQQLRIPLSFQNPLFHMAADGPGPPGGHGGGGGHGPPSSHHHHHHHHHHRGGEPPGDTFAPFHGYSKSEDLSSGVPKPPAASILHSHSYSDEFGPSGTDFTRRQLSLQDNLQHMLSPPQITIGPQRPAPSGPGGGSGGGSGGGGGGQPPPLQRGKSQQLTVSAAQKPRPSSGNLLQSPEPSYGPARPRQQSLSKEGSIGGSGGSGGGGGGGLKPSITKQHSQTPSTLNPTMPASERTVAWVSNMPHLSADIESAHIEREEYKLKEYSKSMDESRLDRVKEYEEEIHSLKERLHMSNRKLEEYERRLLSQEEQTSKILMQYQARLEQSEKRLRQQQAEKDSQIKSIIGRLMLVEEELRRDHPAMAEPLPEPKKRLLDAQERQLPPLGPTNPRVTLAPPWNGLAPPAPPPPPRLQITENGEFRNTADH
With B1 the binding was “binds”.
